Data on 4 molecules can be found in doi:10.1101/269647.

The chains behind the UniProt entries cited, without tags or fusion partners.
UniProt Q38912: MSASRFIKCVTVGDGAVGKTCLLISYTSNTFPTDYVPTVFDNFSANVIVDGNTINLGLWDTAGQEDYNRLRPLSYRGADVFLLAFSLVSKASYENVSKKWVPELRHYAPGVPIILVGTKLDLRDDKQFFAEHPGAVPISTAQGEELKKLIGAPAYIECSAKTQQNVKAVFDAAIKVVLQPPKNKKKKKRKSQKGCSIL

The target of assay [1] is T1, RopGEF14-4xMyc (Arabidopsis (Col-0)) (UniProt Q56WM6).
T1 sequence: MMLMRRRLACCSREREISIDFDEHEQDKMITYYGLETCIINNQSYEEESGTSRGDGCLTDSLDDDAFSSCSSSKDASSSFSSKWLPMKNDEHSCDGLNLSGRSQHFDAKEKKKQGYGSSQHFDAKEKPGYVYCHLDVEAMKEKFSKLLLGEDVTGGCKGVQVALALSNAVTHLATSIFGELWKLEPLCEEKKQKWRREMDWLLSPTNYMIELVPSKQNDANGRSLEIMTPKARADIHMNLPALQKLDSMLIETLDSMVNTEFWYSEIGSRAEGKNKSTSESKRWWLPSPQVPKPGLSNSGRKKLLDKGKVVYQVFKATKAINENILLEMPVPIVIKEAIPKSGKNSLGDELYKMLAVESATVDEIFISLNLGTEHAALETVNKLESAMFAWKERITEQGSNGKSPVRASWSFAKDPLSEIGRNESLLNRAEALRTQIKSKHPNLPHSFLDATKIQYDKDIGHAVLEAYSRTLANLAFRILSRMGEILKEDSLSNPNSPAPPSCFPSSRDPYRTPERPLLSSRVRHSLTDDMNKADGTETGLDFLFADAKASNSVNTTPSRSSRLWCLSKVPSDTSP
As to the kind of experiment: co-IP.

Assay [2] concerns the target T2, MBP-GEF14 (Arabidopsis) (UniProt Q56WM6).
T2 sequence: T1 sequence
The experiment in a line: pull-down.

For assay [3], the target named is FER-GFP (Arabidopsis (Col-0)) (UniProt Q9SCZ4). As to the kind of experiment: co-IP.
Assay [4] concerns the target FERONIA (FER), endogenous (Arabidopsis (endogenous in seedlings)) (UniProt Q9SCZ4). The experiment in a line: co-IP.
The target of assay [5] is T2, MBP-GEF14 (Arabidopsis). As to the kind of experiment: pull-down. The source holds these as a separate data set.

Where two headings read alike, the source gives them in different places. These are yes or no findings as the source states them, for the method shown. Binding seen in cells or lysates may run through a third protein. Some entries that bind do so weakly or less than the wild type. For some assays here: Where a sequence is shown, tags or fusion partners need not be part of it.

With “ROP6, endogenous (from UniProt Q38912 1-198)”, the binding entry in assay [1] is on record as “binds”.
ROP6-Flag (from UniProt Q38912 1-198): the binding entry (with MBP-GEF14 (Arabidopsis) [2]; in assay [3]) was “binds” throughout.

B1: GFP-RopGEF14 (protein, UniProt Q56WM6 1-576)
chain: T1 sequence
On to B1, for which, in assay [4], the binding entry is reported as “binds”.

B2: FER-ECD-HA (domain or fragment, UniProt Q9SCZ4 28-447)
chain: ADYSPTEKILLNCGGGASNLTDTDNRIWISDVKSKFLSSSSEDSKTSPALTQDPSVPEVPYMTARVFRSPFTYTFPVASGRKFVRLYFYPNSYDGLNATNSLFSVSFGPYTLLKNFSASQTAEALTYAFIIKEFVVNVEGGTLNMTFTPESAPSNAYAFVNGIEVTSMPDMYSSTDGTLTMVGSSGSVTIDNSTALENVYRLNVGGNDISPSADTGLYRSWYDDQPYIFGAGLGIPETADPNMTIKYPTGTPTYVAPVDVYSTARSMGPTAQINLNYNLTWIFSIDSGFTYLVRLHFCEVSSNITKINQRVFTIYLNNQTAEPEADVIAWTSSNGVPFHKDYVVNPPEGNGQQDLWLALHPNPVNKPEYYDSLLNGVEIFKMNTSDGNLAGTNPIPGPQVTADPSKVLRPTTRKSKSNTA
For the molecule B2, the binding result with MBP-GEF14 (Arabidopsis) [5] was “no binding”.
